In patent US20220175977A1 (SORICIMED BIOPHARMA, published 2022):
No constants are given. Whether binding was seen depends on the method and setting. Some results given as binding are weak or reduced against the parent protein; the word gives no strength.

The chains behind the UniProt entries cited, without tags or fusion partners.
UniProt Q9H1D0: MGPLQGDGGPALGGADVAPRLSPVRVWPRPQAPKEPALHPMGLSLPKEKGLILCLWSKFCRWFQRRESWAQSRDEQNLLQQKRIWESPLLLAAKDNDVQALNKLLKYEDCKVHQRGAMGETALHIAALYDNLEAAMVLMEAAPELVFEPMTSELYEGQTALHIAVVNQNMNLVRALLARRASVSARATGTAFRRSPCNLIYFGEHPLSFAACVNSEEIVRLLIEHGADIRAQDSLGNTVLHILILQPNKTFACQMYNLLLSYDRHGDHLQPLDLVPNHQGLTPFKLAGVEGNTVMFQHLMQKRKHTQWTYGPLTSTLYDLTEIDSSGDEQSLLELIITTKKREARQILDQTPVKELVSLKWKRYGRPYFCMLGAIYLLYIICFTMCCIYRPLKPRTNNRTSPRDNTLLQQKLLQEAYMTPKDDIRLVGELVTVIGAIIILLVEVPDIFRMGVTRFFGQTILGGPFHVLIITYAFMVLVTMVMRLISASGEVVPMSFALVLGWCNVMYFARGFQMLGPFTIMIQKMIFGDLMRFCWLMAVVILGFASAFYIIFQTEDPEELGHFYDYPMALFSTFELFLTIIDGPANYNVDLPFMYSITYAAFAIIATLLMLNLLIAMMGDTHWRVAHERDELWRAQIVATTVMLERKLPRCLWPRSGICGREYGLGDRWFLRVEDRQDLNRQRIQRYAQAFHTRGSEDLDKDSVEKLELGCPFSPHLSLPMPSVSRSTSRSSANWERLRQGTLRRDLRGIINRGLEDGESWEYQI

How the values were obtained:
[1] = target: TRPV6 expressed from a transfected TRPV6 expression vector (UniProt Q9H1D0); assay: fluorescence microscopy, transfected HEK293 cells
[2] = target: TRPV6 expressed from a transfected TRPV6 expression vector (UniProt Q9H1D0); assay: fluorescence microscopy, transfected HEK-293 cells (FIG. 6)
[3] = target: TRPV6 expressed from a transfected TRPV6 expression vector (UniProt Q9H1D0); assay: fluorescence microscopy, HEK-293 cells transfected with TRPV6 expression vector

Measured: binding

EGKLSSNDTEGGLCKEFLHPSKVDLPR (Cy5.5 at the single cysteine thiol (maleimide-activated reaction)) [SorC27-cy5.5]
binds: all assays above
